Source: patent US8828401B2 (Pfizer Inc., priority 2011, dated 2014)

Experiment: general procedure: solution-phase peptide synthesis; HATU
Conditions: for final HPLC purity: HPLC (Protocol A)

Substance	step yield (late stage modification step) [%]	step yield (coupling step) [%]	further results
N-[(9H-fluoren-9-ylmethoxy)carbonyl]-N,2-dimethylalanyl-N-[(3R,4S,5S)-3-methoxy-1-{(2S)-2-[(1R,2R)-1-methoxy-2-methyl-3-oxo-3-(pentafluorophenoxy)propyl]pyrrolidin-1-yl}-5-methyl-1-oxoheptan-4-yl]-N-methyl-L-valinamide	92		
1,2-dimethyl-D-prolyl-N-[(3R,4S,5S)-1-{(2S)-2-[(1R,2R)-3-({(2S)-3-[4-({N-[6-(2,5-dioxo-2,5-dihydro-1H-pyrrol-1-yl)hexanoyl]glycyl}amino)phenyl]-1-methoxy-1-oxopropan-2-yl}amino)-1-methoxy-2-methyl-3-oxopropyl]pyrrolidin-1-yl}-3-methoxy-5-methyl-1-oxoheptan-4-yl]-N-methyl-L-valinamide		16.2	final HPLC purity (coupling step): 96%
1,2-dimethyl-L-prolyl-N-[(3R,4S,5S)-3-methoxy-1-{(2S)-2-[(1R,2R)-1-methoxy-3-{[(2S)-1-methoxy-1-oxo-3-(1,2,3,4-tetrahydroquinolin-6-yl)propan-2-yl]amino}-2-methyl-3-oxopropyl]pyrrolidin-1-yl}-5-methyl-1-oxoheptan-4-yl]-N-methyl-L-valinamide		44	final HPLC purity (coupling step): 100%
N,2-dimethylalanyl-N-[(3R,4S,5S)-3-methoxy-1-{(2S)-2-[(1R,2R)-1-methoxy-3-{[(2S)-1-methoxy-1-oxo-3-phenylpropan-2-yl]amino}-2-methyl-3-thioxopropyl]pyrrolidin-1-yl}-5-methyl-1-oxoheptan-4-yl]-N-methyl-L-valinamide	85		
N,2-dimethylalanyl-N-{(1S,2R)-4-{(2S)-2-[(1R,2R)-3-{[(1S)-1-benzyl-2-oxo-2-(propylamino)ethyl]amino}-1-methoxy-2-methyl-3-oxopropyl]pyrrolidin-1-yl}-2-methoxy-1-[(1S)-1-methylpropyl]-4-oxobutyl}-N-methyl-L-valinamide, trifluoroacetic acid salt			step yield (late stage modification step, TFA salt): 20%
N,2-dimethylalanyl-N-{(1S,2R)-4-{(2S)-2-[(1R,2R)-3-{[(1S)-1-carboxy-2-phenylethyl]amino}-1-methoxy-2-methyl-3-oxopropyl]pyrrolidin-1-yl}-2-methoxy-1-[(1S)-1-methylpropyl]-4-oxobutyl}-N-methyl-L-valinamide		64	
methyl N-{(2R,3R)-3-[(2S)-1-{(3R,4S,5S)-4-[(N-{[(3R)-3-fluoropyrrolidin-3-yl]carbonyl}-L-valyl)(methyl)amino]-3-methoxy-5-methylheptanoyl}pyrrolidin-2-yl]-3-methoxy-2-methylpropanoyl}-L-phenylalaninate, trifluoroacetic acid salt [#173]			step yield (late stage modification step, run 1): 45%
2-methylalanyl-N-{(3R,4S,5S)-1-[(2S)-2-{(3R,4R,7S)-7-benzyl-4-methyl-18-[(4S,5R)-5-methyl-2-oxoimidazolidin-4-yl]-5,8,13-trioxo-2-oxa-6,9,12-triazaoctadecan-3-yl}pyrrolidin-1-yl]-3-methoxy-5-methyl-1-oxoheptan-4-yl}-N-methyl-L-valinamide	50		
2-methylalanyl-N-{(3R,4S,5S)-3-methoxy-1-[(2S)-2-{(1R,2R)-1-methoxy-2-methyl-3-oxo-3-[(2-phenylethyl)amino]propyl}pyrrolidin-1-yl]-5-methyl-1-oxoheptan-4-yl}-N-methyl-L-valinamide, acetic acid salt			step yield (late stage modification step, acetic acid salt): 49%
